Structures can show the parent of a compound that is named as a salt. The list shows a part of the results. Most values come without repeats; read them as rough.

The subject of this assay is patient-derived ovarian cancer cells (PDC). As to the kind of experiment: cell growth inhibition ratio vs untreated control (CCK8); higher = stronger inhibition of cell viability. Conditions: 10 µM; 48 h. The procedure:
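Natural product library (Topscience) screened at 10 µM final concentration for 48 h on ovarian cancer A2780 cells and patient-derived ovarian cancer cells (PDC) in 96-well plates; viability read by CCK8 and reported as inhibition ratio (%) relative to untreated control. Single-dose primary screen.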
For `C[C@]12C=CC(=O)C=C1CC[C@@H]1[C@@H]2CC[C@@]2(C)[C@H]1CC[C@]2(C)O` [Methandrostenolone], the “cell growth inhibition ratio” value came to 21.5%.
With `COc1ccc(CC2NCCc3cc(OC)c(OC)cc32)cc1OC` (stereo not drawn) [Tetrahydropapaverine hydrochloride] the figure was 12.7%.
For `CC1=C(O)C(=O)C=C2C1=CC=C1[C@@]2(C)CC[C@@]2(C)[C@@H]3C[C@](C)(C(=O)O)CC[C@]3(C)CC[C@]12C` [Celastrol] the value was -14.5%; for `COC(=O)C1=CCCN(C)C1` [Arecoline HBr], -16%.
With `N#C/C=C1/C=C[C@@H](O)[C@H](O)[C@H]1O[C@@H]1O[C@H](CO)[C@@H](O)[C@H](O)[C@H]1O` [Griffonin] the figure was -21.9%; with `C[C@]12CC[C@H](O)C[C@H]1CC[C@@H]1[C@@H]2CC[C@]2(C)[C@@H](c3ccc(=O)oc3)CC[C@]12O` [Bufalin], 75.2%.
With `CNC1CC(N)C(O)C(OC2OC(CO)C(O)C3OC4(OC(C(N)CO)C(O)C(O)C4O)OC23)C1O` (stereo not drawn) [Hygromycin B], the “cell growth inhibition ratio” value came out at 19%.
Regarding `CCC(=O)O[C@H]1CC[C@H]2[C@@H]3CC[C@H]4CC(=O)[C@H](C)C[C@]4(C)[C@H]3CC[C@]12C` [Drostanolone Propionate], the “cell growth inhibition ratio” value was found to be 9.24%.
For `C[C@@]12C(=O)OC(=O)[C@]1(C)[C@H]1CC[C@@H]2O1` [Cantharidin] the value was 75.4%; for `CCC1(O)C(=O)OCc2c1cc1n(c2=O)Cc2cc3ccccc3nc2-1` (single isomer, unassigned; (+)) [(+)-Camptothecin], 82.1%.
For `O=c1cccc2n1C[C@@H]1CNC[C@H]2C1` [Cytisine] the value was 17.8%; for `C[C@@H]1C[C@@H]([C@H](O)CC2CC(=O)NC(=O)C2)C(=O)[C@@H](C)C1` [Actidione], 62.9%; for `O=c1ccc2ccc3occc3c2o1` [Isopsoralen], 4.1%.
With `CCC1=C[C@H]2CN3CCc4c([nH]c5ccccc45)[C@](C(=O)OC)(C2)[C@H]13` [Catharanthine] the figure was -1.01%; with `CC(C)c1ccc2c(c1O)CC[C@H]1C3=C(CC[C@]21C)C(=O)OC3` [Triptophenolide], 10.1%.
Turning to `C[C@]12CCC(=O)C=C1CC[C@@H]1[C@@H]2C(=O)C[C@]2(C)C(=O)CC[C@@H]12` [Adrenosterone], the “cell growth inhibition ratio” value worked out at 12.9%.
For the compound `C[C@]12CCC(=O)C=C1CC[C@@H]1[C@@H]2CC[C@@]2(C)[C@H]1CC[C@]2(C)O` [17-Methyltestosterone], the “cell growth inhibition ratio” value came to 6.21%.
With `CC(=O)O[C@H]1C(=O)[C@@]2(C)[C@H]([C@H](OC(=O)c3ccccc3)[C@]3(O)C[C@H](O)C(C)=C1C3(C)C)[C@]1(OC(C)=O)CO[C@@H]1C[C@@H]2O` [Baccatin III] the figure was 13.1%; with `C=C[C@H]1CN2CC[C@H]1C[C@@H]2[C@@H](O)c1ccnc2ccccc12` [Cinchonine], -0.983%; with `COc1cc(O)cc(/C=C/c2ccc(O)cc2)c1` [Pinostilbene], 13.6%.
With `CC(=O)OC(C)(C)/C=C/C(=O)[C@](C)(O)[C@H]1[C@H](O)C[C@@]2(C)[C@@H]3CC=C4[C@H](C[C@H](O)C(=O)C4(C)C)[C@]3(C)C(=O)C[C@]12C` [Cucurbitacin B] the figure was 82.5%; with `O=C(/C=C/c1ccccc1)OC[C@H]1O[C@@H](O[C@@H]2OC=C[C@H]3[C@H](O)[C@@H]4O[C@]4(CO)[C@@H]23)[C@H](O)[C@@H](O)[C@@H]1O` [Picroside I], 10.8%; with `C=C(C)[C@H]1Cc2c(ccc3c2O[C@@H]2COc4cc(OC)c(OC)cc4[C@@H]2C3=O)O1` [Rotenone], 51.7%.
Regarding `CN1[C@@H]2CC[C@H]1C[C@@H](OC(=O)C(CO)c1ccccc1)C2` (stereo partly drawn) [Atropine sulfate], the “cell growth inhibition ratio” value is -4.13%.
With `COc1ccc2c3c([nH]c2c1)C(C)=NCC3` [Harmaline] the figure was -1.29%.
With `O=C1C=CC[C@@H]2[C@H]3CCC[N+]4([O-])CCC[C@@H](CN12)[C@@H]34` (stereo partly drawn) [Oxysophocarpine] the figure was -7.96%; with `S=C=NCc1ccccc1` [Benzyl isothiocyanate], -6.94%; with `CCCCCc1cc(O)cc(O)c1` [Olivetol], -12.7%.
With `COC1=C[C@@H]2[C@@H]3Cc4ccc(OC)c(O)c4[C@]2(CCN3C)CC1=O` [Sinomenine hydrochloride] the figure was -10.3%.
Turning to `Cc1cc2c(C(C)C)c(O)c(O)c(C=O)c2c(O)c1-c1c(C)cc2c(C(C)C)c(O)c(O)c(C=O)c2c1O` [Gossypol], the “cell growth inhibition ratio” value was -23.2%.
Turning to `CCO[C@H]1O[C@@H]2O[C@@]3(C)CC[C@H]4[C@H](C)CC[C@@H]([C@H]1C)[C@@]24OO3` [Arteether], the “cell growth inhibition ratio” value turned out to be 0.696%.
With `CN(C)[C@@H]1C(=O)C(C(N)=O)=C(O)[C@@]2(O)C(=O)C3=C(O)c4c(O)ccc(Cl)c4[C@@](C)(O)[C@H]3C[C@@H]12` [Chlortetracycline hydrochloride] the figure was 0.892%.
For `O=C1C[C@@H]2OCC=C3CN4CC[C@]56c7ccccc7N1[C@H]5[C@H]2[C@H]3C[C@H]46` [Strychnine Sulfate] the value was 11%.
